Test results from the supplement of paper PMC6078165.
± gives the standard deviation of the averaged measurements. Values are relative to the signal before dosing, not to a vehicle control; the signal also falls without drug.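 Fibroblast labels name human fibroblasts: mostly primary ones from tissues such as uterus (C12385, HUF), lung (H6013), bone (Hs27A), adrenal (HADF) and skin (WS1), plus mammary HMF and breast cancer-associated Hs343T. The cancer cells are basal-like or mesenchymal-like triple-negative breast cancer lines. The paper calls a changed response a hit when it shifts by more than 3x the replicate standard deviation. The tissue of the other fibroblasts is not given here.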

Tested on: MDAMB468
Test: relative JC-1 red fluorescence (viability) vs pre-drug, coculture with fibroblast (fraction); higher = more viable cancer cells
Method: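 JC-1 labelled TNBC cells cocultured 1:1 (1,500 cells each) with CellTrace Violet stained primary or stromal fibroblasts in 384-well plates in FluoroBrite medium, treated with one of 42 anticancer drugs at 0.1, 1, 10 or 100 uM. JC-1 red fluorescence (mitochondrial integrity in cancer cells only) was read by plate reader every 8 h for 72 h. Values are normalised to each well's pre-drug value. The stock of one drug was tenfold lower, so its dose labels may be too high.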

COc1cc([C@@H]2c3cc4c(cc3[C@@H](O[C@@H]3O[C@@H]5CO[C@@H](C)O[C@H]5[C@H](O)[C@H]3O)[C@H]3COC(=O)[C@H]23)OCO4)cc(OC)c1O [Etoposide]
relative JC-1 red fluorescence
Details | 8 h | 16 h | 24 h | 32 h | 40 h | 48 h | 56 h | 64 h | 72 h
0.1 µM, coculture fibroblast: C12385 | 0.86924 ± 0.00047 | 0.822 ± 0.042 | 0.787 ± 0.059 | 0.753 ± 0.084 | 0.725 ± 0.088 | 0.731 ± 0.11 | 0.703 ± 0.11 | 0.703 ± 0.12 | 0.698 ± 0.13
0.1 µM, coculture fibroblast: H6013 | 0.8591 ± 0.0018 | 0.858 ± 0.016 | 0.818 ± 0.014 | 0.8051 ± 0.0041 | 0.781 ± 0.012 | 0.794 ± 0.025 | 0.768 ± 0.031 | 0.748 ± 0.032 | 0.703 ± 0.028
0.1 µM, coculture fibroblast: H6019 | 0.835 ± 0.0071 | 0.812 ± 0.012 | 0.78836 ± 0.00034 | 0.7559 ± 0.0012 | 0.7164 ± 0.0068 | 0.707 ± 0.028 | 0.667 ± 0.035 | 0.637 ± 0.019 | 0.611 ± 0.021
0.1 µM, coculture fibroblast: H6076 | 0.90704 ± 0.00081 | 0.943 ± 0.021 | 0.867 ± 0.031 | 0.854 ± 0.031 | 0.782 ± 0.025 | 0.774 ± 0.031 | 0.743 ± 0.028 | 0.731 ± 0.024 | 0.763 ± 0.031
0.1 µM, coculture fibroblast: H6231 | 0.819 ± 0.034 | 0.95 ± 0.039 | 0.867 ± 0.033 | 0.83 ± 0.012 | 0.779 ± 0.034 | 0.755 ± 0.037 | 0.698 ± 0.038 | 0.664 ± 0.051 | 0.65 ± 0.044
0.1 µM, coculture fibroblast: HADF | 0.872 ± 0.023 | 0.858 ± 0.048 | 0.795 ± 0.06 | 0.778 ± 0.063 | 0.733 ± 0.066 | 0.728 ± 0.075 | 0.696 ± 0.089 | 0.69 ± 0.092 | 0.651 ± 0.099
0.1 µM, coculture fibroblast: HCFa | 0.853 ± 0.0092 | 0.836 ± 0.018 | 0.784 ± 0.013 | 0.754 ± 0.0017 | 0.6943 ± 0.00096 | 0.6986 ± 0.0029 | 0.6432 ± 0.0055 | 0.608 ± 0.0073 | 0.553 ± 0.011
0.1 µM, coculture fibroblast: HCPF | 0.865 ± 0.025 | 0.9342 ± 0.0011 | 0.91 ± 0.078 | 0.869 ± 0.058 | 0.823 ± 0.071 | 0.802 ± 0.07 | 0.751 ± 0.072 | 0.732 ± 0.059 | 0.718 ± 0.048
0.1 µM, coculture fibroblast: HHSteC | 0.885 ± 0.017 | 0.874 ± 0.021 | 0.838 ± 0.023 | 0.799 ± 0.03 | 0.757 ± 0.042 | 0.754 ± 0.045 | 0.699 ± 0.049 | 0.682 ± 0.052 | 0.631 ± 0.051
0.1 µM, coculture fibroblast: HMF | 0.828 ± 0.017 | 0.883 ± 0.099 | 0.8885 ± 0.003 | 0.843 ± 0.024 | 0.782 ± 0.021 | 0.746 ± 0.04 | 0.698 ± 0.063 | 0.686 ± 0.07 | 0.665 ± 0.078
0.1 µM, coculture fibroblast: HPFa | 0.9105 ± 0.0039 | 0.895 ± 0.016 | 0.865 ± 0.025 | 0.801 ± 0.029 | 0.776 ± 0.041 | 0.777 ± 0.051 | 0.712 ± 0.058 | 0.686 ± 0.063 | 0.605 ± 0.071
0.1 µM, coculture fibroblast: HUF | 0.8953 ± 0.005 | 0.825 ± 0.018 | 0.779 ± 0.014 | 0.736 ± 0.024 | 0.684 ± 0.023 | 0.67 ± 0.029 | 0.633 ± 0.032 | 0.625 ± 0.043 | 0.611 ± 0.048
0.1 µM, coculture fibroblast: Hs5 | 0.919 ± 0.064 | 0.9413 ± 0.0087 | 0.929 ± 0.026 | 0.908 ± 0.018 | 0.839 ± 0.019 | 0.808 ± 0.015 | 0.7722 ± 0.0049 | 0.7308 ± 0.0062 | 0.7524 ± 0.0015
0.1 µM, coculture fibroblast: Hs27A | 0.853 ± 0.037 | 0.8603 ± 0.0018 | 0.797 ± 0.015 | 0.802 ± 0.029 | 0.751 ± 0.035 | 0.758 ± 0.048 | 0.723 ± 0.061 | 0.712 ± 0.061 | 0.662 ± 0.053
0.1 µM, coculture fibroblast: Hs343T | 0.875 ± 0.021 | 0.88 ± 0.14 | 0.951 ± 0.057 | 0.912 ± 0.065 | 0.878 ± 0.068 | 0.855 ± 0.07 | 0.807 ± 0.053 | 0.799 ± 0.045 | 0.779 ± 0.03
0.1 µM, coculture fibroblast: WS1 | 0.849 ± 0.016 | 0.7995 ± 0.0038 | 0.764 ± 0.021 | 0.715 ± 0.031 | 0.677 ± 0.025 | 0.66 ± 0.025 | 0.643 ± 0.03 | 0.636 ± 0.029 | 0.632 ± 0.025
1 µM, coculture fibroblast: C12385 | 0.878 ± 0.018 | 0.845 ± 0.012 | 0.839 ± 0.012 | 0.806 ± 0.022 | 0.776 ± 0.033 | 0.773 ± 0.028 | 0.744 ± 0.026 | 0.742 ± 0.024 | 0.747 ± 0.026
1 µM, coculture fibroblast: H6013 | 0.8607 ± 0.0046 | 0.8569 ± 0.0046 | 0.8213 ± 0.0059 | 0.8131 ± 0.0076 | 0.79578 ± 0.00076 | 0.7975 ± 0.0046 | 0.7796 ± 0.0019 | 0.772 ± 0.0083 | 0.7178 ± 0.0044
1 µM, coculture fibroblast: H6019 | 0.836 ± 0.0098 | 0.811 ± 0.026 | 0.768 ± 0.047 | 0.705 ± 0.061 | 0.669 ± 0.068 | 0.651 ± 0.091 | 0.601 ± 0.098 | 0.574 ± 0.1 | 0.549 ± 0.1
1 µM, coculture fibroblast: H6076 | 0.891 ± 0.047 | 0.899 ± 0.033 | 0.88 ± 0.039 | 0.872 ± 0.034 | 0.806 ± 0.024 | 0.794 ± 0.025 | 0.767 ± 0.053 | 0.754 ± 0.055 | 0.784 ± 0.041
1 µM, coculture fibroblast: H6231 | 0.839 ± 0.043 | 0.876 ± 0.065 | 0.816 ± 0.051 | 0.811 ± 0.023 | 0.745 ± 0.044 | 0.732 ± 0.03 | 0.69 ± 0.027 | 0.671 ± 0.03 | 0.662 ± 0.024
1 µM, coculture fibroblast: HADF | 0.856 ± 0.02 | 0.849 ± 0.018 | 0.792 ± 0.041 | 0.78 ± 0.062 | 0.758 ± 0.083 | 0.752 ± 0.096 | 0.72 ± 0.11 | 0.718 ± 0.12 | 0.674 ± 0.12
1 µM, coculture fibroblast: HCFa | 0.856 ± 0.031 | 0.823 ± 0.031 | 0.775 ± 0.025 | 0.752 ± 0.024 | 0.702 ± 0.025 | 0.703 ± 0.02 | 0.654 ± 0.014 | 0.623 ± 0.0065 | 0.55674 ± 0.00055
1 µM, coculture fibroblast: HCPF | 0.866 ± 0.013 | 0.9008 ± 0.0077 | 0.842 ± 0.031 | 0.826 ± 0.034 | 0.758 ± 0.02 | 0.719 ± 0.018 | 0.671 ± 0.015 | 0.658 ± 0.028 | 0.656 ± 0.037
1 µM, coculture fibroblast: HHSteC | 0.888 ± 0.018 | 0.875 ± 0.047 | 0.843 ± 0.073 | 0.818 ± 0.088 | 0.8 ± 0.11 | 0.787 ± 0.11 | 0.738 ± 0.11 | 0.713 ± 0.12 | 0.654 ± 0.12
1 µM, coculture fibroblast: HMF | 0.85 ± 0.0055 | 0.915 ± 0.01 | 0.858 ± 0.011 | 0.843 ± 0.015 | 0.773 ± 0.011 | 0.752 ± 0.019 | 0.717 ± 0.04 | 0.701 ± 0.039 | 0.699 ± 0.044
1 µM, coculture fibroblast: HPFa | 0.922 ± 0.018 | 0.9059 ± 0.0028 | 0.8819 ± 0.0074 | 0.834 ± 0.016 | 0.811 ± 0.0092 | 0.812 ± 0.028 | 0.756 ± 0.033 | 0.737 ± 0.036 | 0.653 ± 0.043
1 µM, coculture fibroblast: HUF | 0.883 ± 0.013 | 0.821 ± 0.029 | 0.796 ± 0.027 | 0.745 ± 0.019 | 0.711 ± 0.04 | 0.696 ± 0.051 | 0.661 ± 0.048 | 0.654 ± 0.053 | 0.642 ± 0.062
1 µM, coculture fibroblast: Hs5 | 0.979 ± 0.018 | 0.902 ± 0.031 | 0.866 ± 0.025 | 0.832 ± 0.018 | 0.756 ± 0.037 | 0.719 ± 0.041 | 0.69 ± 0.041 | 0.656 ± 0.042 | 0.677 ± 0.063
1 µM, coculture fibroblast: Hs27A | 0.8306 ± 0.004 | 0.8527 ± 0.0072 | 0.791 ± 0.012 | 0.784 ± 0.018 | 0.737 ± 0.016 | 0.735 ± 0.02 | 0.701 ± 0.028 | 0.692 ± 0.026 | 0.649 ± 0.019
1 µM, coculture fibroblast: Hs343T | 0.852 ± 0.011 | 0.9105 ± 0.0081 | 0.854 ± 0.031 | 0.821 ± 0.033 | 0.747 ± 0.031 | 0.721 ± 0.023 | 0.668 ± 0.032 | 0.65 ± 0.023 | 0.627 ± 0.039
1 µM, coculture fibroblast: WS1 | 0.8472 ± 0.0034 | 0.77648 ± 0.0002 | 0.74 ± 0.011 | 0.68 ± 0.03 | 0.644 ± 0.037 | 0.62 ± 0.043 | 0.587 ± 0.044 | 0.573 ± 0.06 | 0.563 ± 0.072
